Results: paper PMC5342150, “PRMT5 competitively binds to CDK4 to promote G1-S transition upon glucose induction in hepatocellular carcinoma” (Oncotarget, 2016)
No constants are given. Whether binding was seen depends on the method and setting. In cells and extracts the contact can be indirect. Some binding calls cover weakened binding; strength is not graded here. Values belong to the substance of their own block, whether it stands above or below them.

By UniProt entry, the sequences of proteins in these tests, tags left out. Where a name states a change or a piece, a line headed by the entry shows the natural chain unless it says otherwise. Chains listed by the source or under a name are the forms on record and can include a tag or linker. Residues count along the entry.
UniProt O14744: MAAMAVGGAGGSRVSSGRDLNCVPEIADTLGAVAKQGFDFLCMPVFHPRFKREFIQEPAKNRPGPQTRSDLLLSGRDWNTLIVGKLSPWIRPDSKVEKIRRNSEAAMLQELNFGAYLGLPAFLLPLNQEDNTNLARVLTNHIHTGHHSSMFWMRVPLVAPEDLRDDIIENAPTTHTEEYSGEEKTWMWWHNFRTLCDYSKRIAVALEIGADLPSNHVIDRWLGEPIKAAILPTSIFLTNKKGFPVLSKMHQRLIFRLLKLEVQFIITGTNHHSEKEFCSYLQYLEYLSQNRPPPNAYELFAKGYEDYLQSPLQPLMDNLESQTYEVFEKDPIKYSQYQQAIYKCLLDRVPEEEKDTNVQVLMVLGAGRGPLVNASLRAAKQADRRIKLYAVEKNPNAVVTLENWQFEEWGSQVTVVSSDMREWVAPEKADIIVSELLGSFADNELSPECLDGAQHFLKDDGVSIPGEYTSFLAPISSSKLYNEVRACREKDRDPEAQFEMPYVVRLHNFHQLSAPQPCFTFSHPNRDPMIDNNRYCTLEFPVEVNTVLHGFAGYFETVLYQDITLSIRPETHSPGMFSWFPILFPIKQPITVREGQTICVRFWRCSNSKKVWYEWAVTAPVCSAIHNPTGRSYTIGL
UniProt P11802: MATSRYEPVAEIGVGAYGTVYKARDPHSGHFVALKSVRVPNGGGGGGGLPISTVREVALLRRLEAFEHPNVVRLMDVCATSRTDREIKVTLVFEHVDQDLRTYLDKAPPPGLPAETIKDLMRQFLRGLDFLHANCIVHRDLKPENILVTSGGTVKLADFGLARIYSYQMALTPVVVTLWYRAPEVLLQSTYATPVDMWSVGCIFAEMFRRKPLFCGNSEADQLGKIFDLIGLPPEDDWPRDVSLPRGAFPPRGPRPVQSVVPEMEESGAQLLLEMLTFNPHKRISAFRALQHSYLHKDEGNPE
GST-fused CDK4 1-70 aa: residues 1-70 of P11802
Flag-tagged CDK4 Δ50-56 (P11802-1, form named): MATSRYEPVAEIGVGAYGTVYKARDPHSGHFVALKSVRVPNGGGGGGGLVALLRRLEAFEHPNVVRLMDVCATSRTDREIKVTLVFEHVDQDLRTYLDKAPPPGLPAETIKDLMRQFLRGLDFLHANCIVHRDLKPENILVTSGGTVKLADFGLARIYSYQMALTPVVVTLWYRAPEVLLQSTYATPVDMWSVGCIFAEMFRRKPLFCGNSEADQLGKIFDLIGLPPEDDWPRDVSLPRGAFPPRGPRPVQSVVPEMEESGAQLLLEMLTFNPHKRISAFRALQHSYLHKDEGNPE
UniProt P24385: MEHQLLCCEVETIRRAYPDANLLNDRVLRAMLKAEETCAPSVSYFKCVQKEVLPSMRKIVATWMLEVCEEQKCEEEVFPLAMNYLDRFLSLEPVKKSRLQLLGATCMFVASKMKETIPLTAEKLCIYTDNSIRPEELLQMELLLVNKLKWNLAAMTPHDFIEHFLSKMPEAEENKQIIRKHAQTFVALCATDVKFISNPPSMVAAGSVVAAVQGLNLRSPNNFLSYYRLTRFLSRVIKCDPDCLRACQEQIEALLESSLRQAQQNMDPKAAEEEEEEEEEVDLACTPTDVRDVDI
UniProt Q9BQA1: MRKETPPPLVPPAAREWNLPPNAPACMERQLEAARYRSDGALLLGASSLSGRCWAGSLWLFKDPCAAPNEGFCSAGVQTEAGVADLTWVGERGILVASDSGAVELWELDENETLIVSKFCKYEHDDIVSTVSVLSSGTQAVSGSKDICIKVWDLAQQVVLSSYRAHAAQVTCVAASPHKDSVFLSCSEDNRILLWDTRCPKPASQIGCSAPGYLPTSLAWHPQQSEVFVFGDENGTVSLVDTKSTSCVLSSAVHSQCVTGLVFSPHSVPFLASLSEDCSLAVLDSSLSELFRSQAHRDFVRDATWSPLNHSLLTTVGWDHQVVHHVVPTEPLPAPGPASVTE

Experiments:
HA-tagged PRMT5 (human) = HA-tagged PRMT5 (human) (UniProt O14744); experiment: co-IP; HEK293T cells transfected with the tagged proteins for 48 h; extracts incubated with antibody-bound Protein A/G or anti-Flag M2 affinity gel for 3 h at 4°C; washed three times with IP buffer; Western blot
[1] = target: GST-fused CDK4 full-length (1-303 aa) (human) (UniProt P11802); experiment: pull-down; GST fusion proteins on glutathione-Sepharose 4B beads mixed with HEK293T cell lysis solution holding the overexpressed tagged PRMT5 for 3 h at 4°C; washed five times with IP buffer; Western blot; only the target purified
Flag-tagged CDK4 (human) [2] = target: Flag-tagged CDK4 (human) (UniProt P11802); experiment: co-IP; HEK293T cells transfected with the tagged proteins for 48 h; extracts incubated with antibody-bound Protein A/G or anti-Flag M2 affinity gel for 3 h at 4°C; washed three times with IP buffer; Western blot
[3] = target: endogenous CDK4 (human (endogenous in HEK293T)) (UniProt P11802); experiment: co-IP; co-IP in the absence of anti-Flag antibody: endogenous proteins (Supplementary Figure S3A) and Flag-PRMT5 with HA-CDK4 (Supplementary Figure S3B)
Flag-tagged CDK4 (human) [4] = target: Flag-tagged CDK4 (human) (UniProt P11802); experiment: co-IP; HEK293T cells co-transfected with Flag-CDK4, Myc-6×His-p16^INK4a (or CCND1) and HA-PRMT5 (0, 0.4 or 4 μg) for 24 h, cultured in high/low glucose media for 24 h; immunoprecipitated with anti-Flag M2 affinity gel; Western blot
Flag-tagged CDK4 (human) [5] = target: Flag-tagged CDK4 (human) (UniProt P11802); experiment: co-IP; HepG2 cells co-transfected for 24 h in normal conditions, then cultured in no/low/high glucose media for 24 h; Western blot
[6] = target: GST-fused CDK4 1-70 aa (human) (UniProt P11802); experiment: pull-down; GST fusion proteins on glutathione-Sepharose 4B beads mixed with HEK293T cell lysis solution holding the overexpressed tagged PRMT5 for 3 h at 4°C; washed five times with IP buffer; Western blot; only the target purified
[7] = target: Flag-tagged CDK4 R24A mutant (human) (UniProt P11802); experiment: co-IP; HEK293T cells transfected with the tagged proteins for 48 h; extracts incubated with antibody-bound Protein A/G or anti-Flag M2 affinity gel for 3 h at 4°C; washed three times with IP buffer; Western blot
[8] = target: Flag-tagged CDK4 Δ50-56 (human) (UniProt P11802); experiment: as above
[9] = target: Flag-tagged PRMT5 (human) (UniProt O14744); experiment: co-IP; co-IP in the absence of anti-Flag antibody: endogenous proteins (Supplementary Figure S3A) and Flag-PRMT5 with HA-CDK4 (Supplementary Figure S3B)

binding (HA-tagged PRMT5 (human)): binds
Substance: Flag-tagged CDK4 (from UniProt P11802-1 1-303) (enzyme)

binding [1]: binds
Substance: Flag-tagged PRMT5 (from UniProt O14744 1-637) (enzyme)

binding (Flag-tagged CDK4 (human) [2]): binds | binding [3]: binds
Substance: endogenous PRMT5 (from UniProt O14744 1-637) (enzyme)

binding (Flag-tagged CDK4 (human) [4]): binds
Substance: Myc-6×His-tagged CCND1 (from UniProt P24385 1-295)

binding (Flag-tagged CDK4 (human) [5]): binds | binding [6]: binds | binding [1]: binds | binding [7]: binds weakly | binding [8]: binds | binding (Flag-tagged CDK4 (human) [2]): binds
Substance: HA-tagged PRMT5 (from UniProt O14744 1-637) (enzyme)

binding [9]: binds
Substance: HA-CDK4 (from UniProt P11802-1 1-303) (enzyme)

binding (HA-tagged PRMT5 (human)): binds
Substance: endogenous CDK4 (from UniProt P11802-1 1-303) (enzyme)

binding (Flag-tagged CDK4 (human) [5]): binds | binding (Flag-tagged CDK4 (human) [2]): binds
Substance: HA-MEP50 (from UniProt Q9BQA1 1-342)
